PubChem BioAssay AID1671195 – Yale University – 2021

Test: 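Genes whose knockdown alters LDL uptake in liver cancer cells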 (primary screen)
Cell system: human Huh7 hepatoma cells
Reagent: siRNA pool against human genes, 18 nM
Duration: about 2 to 2.5 days of knockdown, then 8 h LDL uptake
Conditions: DiI-labelled LDL at 30 µg/ml for 8 h, in lipoprotein-deficient serum medium
Read-out: 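Per-cell DiI-LDL intensity by automated imaging; well means scaled to the plate median and given as a robust z-score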
Direction: robust z-score: higher = more LDL uptake after knockdown
Rule for the call: 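a gene counts as active if at least two replicate z-scores exceed ±2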
Shown is an unselected part of about 22,000 deposited reagents. Over the whole deposit, about 1,510 (6.9%) are marked active. 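Active includes knockdowns raising or lowering LDL uptake; positive z-scores mean more uptake, negative mean less.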

PCDHAC1
- robust z-score, replicate 1: 0.746
- robust z-score, replicate 2: 1.31
- robust z-score, replicate 3: 1.05
- call: inactive

TMEM176B
- robust z-score, replicate 1: 0.0619
- robust z-score, replicate 2: -1.09
- robust z-score, replicate 3: 0.879
- call: inactive

MYO5C
- robust z-score, replicate 1: -0.334
- robust z-score, replicate 2: 0.0579
- robust z-score, replicate 3: 0.37
- call: inactive

RCAN2
- robust z-score, replicate 1: 0.916
- robust z-score, replicate 2: -0.058
- robust z-score, replicate 3: 0.0521
- call: inactive

INKA1
- robust z-score, replicate 1: 0.394
- robust z-score, replicate 2: -0.35
- robust z-score, replicate 3: -0.354
- call: inactive

ZNF48
- robust z-score, replicate 1: -0.122
- robust z-score, replicate 2: -0.232
- robust z-score, replicate 3: 0.0607
- call: inactive

NCS1
- robust z-score, replicate 1: -1.04
- robust z-score, replicate 2: -0.785
- robust z-score, replicate 3: -0.897
- call: inactive

UGT2B17
- robust z-score, replicate 1: 0.975
- robust z-score, replicate 2: 0.852
- robust z-score, replicate 3: 1.18
- call: inactive

LOC340893 (retired record)
- robust z-score, replicate 1: -0.582
- robust z-score, replicate 2: -0.598
- robust z-score, replicate 3: -0.231
- call: inactive

LOC401945 (retired record)
- robust z-score, replicate 1: -1.11
- robust z-score, replicate 2: 0.178
- robust z-score, replicate 3: -0.752
- call: inactive

ASTN1
- robust z-score, replicate 1: -0.0637
- robust z-score, replicate 2: 0.948
- robust z-score, replicate 3: -0.284
- call: inactive

SLC7A13
- robust z-score, replicate 1: -0.671
- robust z-score, replicate 2: -0.757
- robust z-score, replicate 3: -0.141
- call: inactive

Sorted by “robust z-score, replicate 3” (lowest first): 2 of the entries above
MYO5C
- robust z-score, replicate 1: -0.334
- robust z-score, replicate 2: 0.0579
- robust z-score, replicate 3: 0.37
- call: inactive

TMEM176B
- robust z-score, replicate 1: 0.0619
- robust z-score, replicate 2: -1.09
- robust z-score, replicate 3: 0.879
- call: inactive
